Data source: PubChem BioAssay AID743121 (NCATS, 2013)

Assay: 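Genes whose silencing strengthens cell killing by camptothecin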 (primary screen)
Cell system: MDA-MB-231 cells, a human breast cancer line
Knock-down reagent: single siRNA against human genes, 20 nM siRNA (0.8 pmol per well)
Timing: 120 h (drug added 48 h after transfection, read 72 h later)
Conditions: camptothecin 20 nM (about EC30) for 72 h; vehicle 0.1% DMSO in parallel plates
Detection: 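Cell viability by ATP luminescence (CellTiter-Glo) as % of non-targeting siRNA wells, and the log2 ratio of viability without drug over viability with camptothecin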
Reading the numbers: log2 vehicle/camptothecin viability: higher = stronger sensitisation to camptothecin; viability with camptothecin: higher = more viable cells
Hit rule: 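Active genes have an RSA gene-level p-value below 0.001, computed from the ratios of their separate siRNAs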
Here is an unselected part of about 26,000 deposited reagents. Over the whole deposit, 167 (0.63%) were called active. 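Calls are per gene from RSA p-values that are not deposited; an individual active-marked siRNA can sensitise only weakly.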 A number with no mark means an inactive call. Reagents against one gene are numbered here. Not all columns of the deposit are shown. No sequences are given here.

gene knocked down,siRNA no.,log2 vehicle/camptothecin viability,viability with camptothecin (% of control)
TAS2R43,1,0.477,66.1
TAS2R43,2,0.668,27.6
TAS2R43,3,-0.4,32.1
TAS2R43,4,-0.0419,83.8
IL13,1,-0.0358,100
IL13,2,-0.496,72.6
IL13,3,-0.442,68.8
IL13,4,0.0058,72.8
PPP2R1A,1,0.631 (active),36.7
PPP2R1A,2,0.753 (active),30.2
PPP2R1A,3,0.0976 (active),50.7
PPP2R1A,4,0.595 (active),46.3
LTA,1,-0.031,101
LTA,2,0.0972,81.6
LTA,3,0.187,44.6
ALDH3B1,1,0.386,41
ALDH3B1,2,-0.425,50.3
ALDH3B1,3,-0.401,76.4
ALDH3B1,4,1.45,11.8
UCHL1,1,0.0325,30.5
UCHL1,2,0.0348,92.8
UCHL1,3,-0.0762,96.4
UCHL1,4,-0.0177,36.1
SGSH,1,-0.411,54.9
SGSH,2,-0.245,52
SGSH,3,-0.168,66.8
SGSH,4,0.659,36.5
AKR1B1,1,-0.359,83.6
AKR1B1,2,-0.185,62.2
AKR1B1,3,-0.226,87
AKR1B1,4,-0.339,77.7
SHBG,1,0.00729,70.4
SHBG,2,-0.0862,73.2
SHBG,3,-0.571,21.1
SHBG,4,-0.242,98.5
TOP2A,1,-0.769,85.4
TOP2A,2,0.00891,9.52
TOP2A,3,-0.0333,66.3
TOP2A,4,-0.519,58.7
LIPF,1,-0.422,47.8
LIPF,2,-0.142,111
LIPF,3,-0.264,54.9
LIPF,4,0.166,82.8
TTC3,1,-0.0792,100
TTC3,2,0.2,68.9
TTC3,3,-0.0527,76.1
TTC3,4,1.03,27.7
TGFA,1,-0.116,110
TGFA,2,0.0555,108
TGFA,3,-0.00931,101
TGFA,4,-0.304,61.9
GPX1,1,-0.257,44.2
GPX1,2,-0.308,56.3
GPX1,3,-0.179,102
PTPN14,1,0.0176,94.8
PTPN14,2,-0.338,75.8
PTPN14,3,0.114,93.3
PTPN14,4,-0.256,76
GNG4,1,-0.358,82.9
GNG4,2,0.00498,71.4
GNG4,3,0.228,56
GNG4,4,-0.323,77.8
RNF122,1,-0.15,97.2
RNF122,2,-0.552,31.9
RNF122,3,0.236,22.6
RNF122,4,0.182,48.6
PLK2,1,1.22,16.2
PLK2,2,-0.255,70
PLK2,3,-0.00961,86.7
PLK2,4,-0.363,116
HTR3D,1,-0.0448,64.2
HTR3D,2,0.311,77
HTR3D,3,-0.0736,55.6
HTR3D,4,-0.0198,56.7
CD302,1,-0.46,74.4
CD302,2,-0.429,95.5
CD302,3,-0.449,61
CD302,4,0.0359,88.3
AURKAIP1,1,-0.282,79.1
AURKAIP1,2,1.78,5.9
AURKAIP1,3,-0.0328,45.6
AURKAIP1,4,0.338,46.3
MMD2,1,0.000184,112
MMD2,2,-0.134,85.4
MMD2,3,0.0455,90.9
MMD2,4,0.385,64.4
DCX,1,0.157,71.1
DCX,2,-0.109,60.1
DCX,3,-0.234,123
DCX,4,-0.602,73.3

In a second layout: entries from further up.
gene knocked down | siRNA no. | log2 vehicle/camptothecin viability | viability with camptothecin (% of control)
LIPF | 3 | -0.264 | 54.9
LIPF | 4 | 0.166 | 82.8
TTC3 | 1 | -0.0792 | 100
TTC3 | 2 | 0.2 | 68.9
TTC3 | 3 | -0.0527 | 76.1
TTC3 | 4 | 1.03 | 27.7
